Data from patent publication US20190133173A1.
No constants are given. Whether binding was seen depends on the method and setting. In cells and extracts the contact can be indirect. Some binding calls cover weakened binding; strength is not graded here. Sequences can lack the tags named with a protein.

Sequences of proteins named here, by UniProt entry; tags and fusion partners are left off. Residues count along the entry.
UniProt Q02248, residues 2-781: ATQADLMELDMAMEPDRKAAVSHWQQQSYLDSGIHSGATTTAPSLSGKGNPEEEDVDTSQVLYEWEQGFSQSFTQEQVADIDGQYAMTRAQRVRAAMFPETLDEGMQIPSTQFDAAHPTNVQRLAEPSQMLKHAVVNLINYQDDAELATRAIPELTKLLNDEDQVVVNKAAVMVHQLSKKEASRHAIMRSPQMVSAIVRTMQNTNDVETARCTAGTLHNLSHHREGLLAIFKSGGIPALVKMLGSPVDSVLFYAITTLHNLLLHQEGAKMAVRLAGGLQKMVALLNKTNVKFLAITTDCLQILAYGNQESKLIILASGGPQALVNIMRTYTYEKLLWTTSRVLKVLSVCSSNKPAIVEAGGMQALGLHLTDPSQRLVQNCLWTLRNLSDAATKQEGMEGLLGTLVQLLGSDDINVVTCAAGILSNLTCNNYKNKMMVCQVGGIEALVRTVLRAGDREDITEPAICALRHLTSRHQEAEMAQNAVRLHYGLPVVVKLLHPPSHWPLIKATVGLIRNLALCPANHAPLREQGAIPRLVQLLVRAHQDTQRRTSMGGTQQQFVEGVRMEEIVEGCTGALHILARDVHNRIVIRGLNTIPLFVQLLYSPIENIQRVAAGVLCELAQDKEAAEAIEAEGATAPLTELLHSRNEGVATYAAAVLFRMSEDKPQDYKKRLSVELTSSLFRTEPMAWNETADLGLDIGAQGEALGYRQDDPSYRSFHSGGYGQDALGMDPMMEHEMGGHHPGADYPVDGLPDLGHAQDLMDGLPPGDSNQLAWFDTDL

Target: T1, GFP-tagged M-cadherin (human cDNA, expressed in C2C12 cells) (human) (UniProt P55291)
T1 sequence (looked up): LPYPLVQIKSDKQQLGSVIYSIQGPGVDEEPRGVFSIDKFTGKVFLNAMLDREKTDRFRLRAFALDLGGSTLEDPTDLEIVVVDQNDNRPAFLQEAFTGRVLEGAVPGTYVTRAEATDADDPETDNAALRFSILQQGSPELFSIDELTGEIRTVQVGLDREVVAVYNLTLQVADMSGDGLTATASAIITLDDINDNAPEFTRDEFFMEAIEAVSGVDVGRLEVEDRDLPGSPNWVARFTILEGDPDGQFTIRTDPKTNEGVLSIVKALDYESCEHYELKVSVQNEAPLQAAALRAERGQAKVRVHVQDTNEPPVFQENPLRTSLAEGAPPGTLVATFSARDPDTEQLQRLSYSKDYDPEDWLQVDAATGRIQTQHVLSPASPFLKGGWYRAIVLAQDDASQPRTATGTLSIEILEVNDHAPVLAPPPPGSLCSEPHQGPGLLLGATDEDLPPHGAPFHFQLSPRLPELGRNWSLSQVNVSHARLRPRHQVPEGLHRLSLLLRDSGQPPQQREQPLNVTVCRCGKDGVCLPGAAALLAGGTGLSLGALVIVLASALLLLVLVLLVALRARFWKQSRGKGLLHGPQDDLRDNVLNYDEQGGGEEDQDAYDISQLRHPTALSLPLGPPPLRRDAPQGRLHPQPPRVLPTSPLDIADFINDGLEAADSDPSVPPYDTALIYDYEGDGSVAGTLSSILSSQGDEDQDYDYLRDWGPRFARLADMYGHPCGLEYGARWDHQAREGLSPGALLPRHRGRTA
Assay: co-immunoprecipitation from lysate of C2C12 cells transfected with GFP-tagged human M-cadherin: IP with M-cadherin antibody, Western blot with anti-β-catenin antibody, with or without 1 µg/ml recombinant Slit3

Substance: β-catenin (from UniProt Q02248 2-781)
- binding: binds
